Some of the results follow.

Protein sequences, listed by entry. Tags and fused reporters are not part of them.
UniProt Q9P1U0, whole entry, looked up: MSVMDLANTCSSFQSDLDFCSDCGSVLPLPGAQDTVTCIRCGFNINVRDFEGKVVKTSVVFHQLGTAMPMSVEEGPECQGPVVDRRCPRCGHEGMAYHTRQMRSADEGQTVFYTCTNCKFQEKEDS

In this experiment the target is ZNRD1 (UniProt Q9P1U0). As to the kind of experiment: log2 fold change, soluble protein after heating vs DMSO (PISA); higher = thermal stabilisation; K562 cells, 10 uM, 30 min; active = over 0.2 and 3.5 SD of the protein, either way, in both replicates (recomputed). A digest of the protocol: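 K562 cells at 2×10^6 cells/mL were treated for 30 min with 10 μM compound, and aliquots were heated for 3 min over 48°C-58°C before pooling. Extraction used PBS with 0.5% NP-40 at 4°C, and soluble protein was the supernatant after 21,000xg for 90 min, measured by TMTpro 16plex LC-MS/MS with channel sums equalised. Thermal stability values, relative to control samples and from duplicates, are log2 fold changes.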
As for `CN1CC[C@H](c2c(O)cc(O)c3c(=O)cc(-c4ccccc4Cl)oc23)[C@H](O)C1` [alvocidib], the log2 fold change is inactive: 0.03. For `Cc1cc(SCc2sc(-c3ccc(C(F)(F)F)cc3)nc2C)ccc1OCC(=O)O`, the log2 fold change was inactive: -0.253. `O=C1NC(=O)C(c2cnc3ccccn23)=C1c1cn2c3c(cc(F)cc13)CN(C(=O)N1CCCCC1)CC2`: the log2 fold change is inactive: -0.032. The result for `CC[C@H](C)n1cc(C)c2c(C(=O)NCc3c(C)cc(C)[nH]c3=O)cc(-c3ccc(N4CCNCC4)nc3)cc21` reads inactive: -0.046. For the compound `Cn1cc(-c2ccc3c(c2)CCN3C(=O)Cc2cccc(C(F)(F)F)c2)c2c(N)ncnc21`, the log2 fold change was inactive: -0.099. For `Cc1cc(Nc2cc(N3CCN(C)CC3)nc(Sc3ccc(NC(=O)C4CC4)cc3)n2)n[nH]1` [tozasertib] the value was inactive: 0.028; for `CC(C)(O)CC(=O)NCCn1ccc2ncnc(Nc3ccc(Oc4cccc(C(F)(F)F)c4)c(Cl)c3)c21`, inactive: 0.104; for `O=C(Nc1cccc(Nc2ncc(Br)c(NCCc3cnc[nH]3)n2)c1)N1CCCC1`, inactive: 0.015. For `C[C@H](Nc1ncnc2nc[nH]c12)c1cc2cccc(Cl)c2c(=O)n1-c1ccccc1` [duvelisib], the log2 fold change is inactive: -0.009. The result for `C[C@@H](N)c1ccc(C(=O)Nc2ccnc3[nH]ccc23)cc1` reads inactive: 0.064. On to `NC1(Cc2ccc(Cl)cc2)CCN(c2ncnc3[nH]ccc23)CC1`, for which the log2 fold change was inactive: 0.118. The result for `CC[C@H](C)[C@H](NC(=O)[C@H]([C@@H](C)CC)N(C)C(C)=O)C(=O)N[C@H](C(=O)N[C@@H](CC(C)C)C(=O)[C@@]1(C)CO1)[C@@H](C)O` [epoxomicin] reads inactive: 0.121.
